Cell number change and AC50 data for 15 compounds are collected here from PubChem BioAssay AID2685 (National Center for Advancing Translational Sciences (NCATS), 2010).

Each structure is given as a SMILES string. The list shows a part of the results. The main result of the screen is listed elsewhere. These columns were measured beside it and carry no call. Most of these compounds were active or inconclusive in the main read-out, so they are no random draw. Potencies come from curve fits of mixed quality, noted in brackets.

This test can be described thus: qHTS Assay for Lipid Storage Modulators in Drosophila S3 Cells.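 As to Cell number change: cells counted by Cell Tracker Red CMTPX staining in the red channel.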 The settings on record: BODIPY lipid droplet fluorescence, 18-24 h; for cell number change: measured here: cell count max response, cells fed with added oleic acid. In short, it runs like this:
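Drosophila S3 cells got compounds at several concentrations plus oleic acid (400 uM solution). Laser-scanning cytometry with 488 nm excitation read lipid droplets at 500-530 nm and cells at 575-640 nm. Percent activity was relative to 20 uM Triacsin C.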

Where [1] appears, read: measured here: lipid fluorescence (Fed channel) AC50, cells fed with added oleic acid.
[2] abbreviates: measured here: cell number channel AC50, cells fed with added oleic acid.

Turning to `Cc1cccc(-c2nn(-c3ccccc3)cc2C(=O)N2CCN(C3CCS(=O)(=O)C3)CC2)c1` (stereo not drawn), the cell number change was -7.77%. The AC50 under setting [1] is 0.517 µM [falling, full curve].

Turning to `CCOC(=O)C1CCCCN1C(=O)CCc1c(C)nc2cc(-c3ccccc3)nn2c1C` (stereo not drawn), the cell number change was -41.1%. Also, the AC50 under setting [2] is 23.1 µM [falling, single point].

For `CC(C)(C)NS(=O)(=O)c1ccc(CCC(=O)NCc2ccccn2)cc1`, the cell number change is -10.5%. The AC50 under setting [1] is 0.651 µM [rising, full curve].

As for `COc1ccccc1N=C1SCC(=O)N1c1ccccc1OC`, the cell number change was -16.2%. Moreover, under setting [1], the AC50 was 1.64 µM [rising, partial curve].

`C/C(=N\O)c1oc2ccc3c(C)cc(=O)oc3c2c1C`: the cell number change is 14.8%. The AC50 under setting [2] was 1.3 µM [rising, full curve]. For the same compound, the AC50 under setting [1] was 29.1 µM [rising, single point].

In the case of `COCc1cc(C)nc(SCc2ccccc2Cl)c1C#N`, the cell number change was -11.1%. Moreover, the AC50 under setting [1] was 6.51 µM [falling, partial curve].

As for `CCC(C)(C)NC(=O)c1ccc2c(c1)N(CC(=O)N1CCCC1)C(=O)C(C)(C)O2`, the cell number change worked out at 21.9%. Under setting [1], the AC50 is 0.58 µM [falling, single point].

On to `CC(=O)/C(=N\Nc1ccccc1Cl)Sc1cccc2cccnc12`, for which the cell number change is -17.6%. Moreover, the AC50 under setting [1] was 32.6 µM [falling, single point].

For `Cc1ccccc1-n1c(=S)[nH]c2nc3c(cc2c1=O)COC(C)(C)C3`, the cell number change was -25.1%. Besides, under setting [1], the AC50 was 1.64 µM [falling, partial curve, poor fit].

As for `COC(=O)C1CCN(C(=O)COC(=O)c2ccc3[nH]c4c(c3c2)CCCC4)CC1`, the cell number change is -32.8%. In addition, under setting [2], the AC50 is 13 µM [falling, partial curve, poor fit].

As to `CCN(C(=O)c1ccc2c(Cl)c3c(nc2c1)CCC3)c1ccc(C)c(C)c1`, the cell number change is -45.8%. The AC50 under setting [2] is 25.9 µM [falling, partial curve, poor fit]. Further, the AC50 under setting [1] is 2.59 µM [rising, partial curve].

Turning to `O=C(COc1ccc2c(c1)C(=O)CC1(CCCCC1)O2)NCc1ccccn1`, the cell number change turned out to be 33.7%. Further, the AC50 under setting [2] is 4.11 µM [rising, full curve, poor fit]. In addition, the AC50 under setting [1] was 29.1 µM [rising, single point].

In the case of `COc1ccc(CNC(=O)c2c(O)c3cc(OC)c(OC)cc3[nH]c2=O)cc1OC`, the cell number change was -22.8%. For the same compound, the AC50 under setting [2] is 1.3 µM [falling, partial curve]. The AC50 under setting [1] is 6.51 µM [falling, single point].

As to `CN1C(=O)C(O)(CC(=O)/C=C\c2ccc3c(c2)OCO3)c2ccccc21` (stereo not drawn), the AC50 under setting [1] was 2.59 µM [falling, partial curve].

For `Cc1ccc(S(=O)(=O)N(CC2CO2)c2cc(Cl)ccc2Cl)cc1` (stereo not drawn), the cell number change was -2.86%. Also, the AC50 under setting [1] was 3.66 µM [falling, partial curve].
